This is one part of the list. The main result of the screen is listed elsewhere. These columns were measured beside it and carry no call. Compounds called inactive in the main read-out are mostly missing here. Potencies come from curve fits of mixed quality, noted in brackets.
Assay: qHTS Assay for Lipid Storage Modulators in Drosophila S3 Cells;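 for cell number change: cells counted by Cell Tracker Red CMTPX staining in the red channel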
Settings: BODIPY lipid droplet fluorescence, 18-24 h; for cell number change: measured here: cell count max response, cells fed with added oleic acid
Procedure, shortened: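 Drosophila S3 cells loaded with oleic acid (400 uM, as added) and compounds at several concentrations; lipid droplets imaged by 488-nm laser-scanning cytometry, 500–530 nm intensity and object ratio to cell channel. Percent activity normalized to 20 uM Triacsin C.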

[1] = measured here: lipid fluorescence (Fed channel) AC50, cells fed with added oleic acid
[2] = measured here: cell number channel AC50, cells fed with added oleic acid

SMILES	cell number change	AC50 [1]	AC50 [2]
COc1cccc(CN(C)C(c2ccccc2)c2ccccc2)c1OC	7.98%	29.1 µM [rising, single point]	–
Cc1cccc(Nc2ncnc3onc(-c4cccc(Cl)c4)c23)c1C	-24.3%	0.103 µM [falling, full curve, poor fit]	–
CCOC(=O)C1=NN(c2ccccc2)C2(S1)SC(C(C)=O)=C(C)N2c1ccccc1 (centres undefined)	20.2%	–	–
Cc1c(C(=O)Nc2cc(F)cc(F)c2)cnn1-c1ccccc1	-12.6%	–	–
CCc1ccccc1N=C1SCC(=O)N1C	-13.5%	0.0259 µM [falling, full curve, poor fit]	–
O=C(/C=C/c1ccc(Cl)cc1)NC(=S)Nc1ccc(CN2CCOCC2)cc1	-42.9%	–	13 µM [falling, partial curve]
O=C(c1ccc(NC2=NC3CS(=O)(=O)CC3S2)cc1)N1CCN(c2ccccc2)CC1 (centres undefined)	-15.9%	0.0731 µM [falling, single point]	–
O=C(CSc1ccc2nnc(-c3ccccn3)n2n1)Nc1cccc(F)c1	-2.79%	0.291 µM [rising, full curve, poor fit]	–
CS(=O)(=O)N(Cc1ccc(C(=O)NC2CCCCC2O)cc1)c1ccccc1 (centres undefined)	-47.5%	–	32.6 µM [falling, single point]
CC(=O)c1c(N2CCCC2)[nH]c(-c2ccccc2)nc1=S	87.5%	2.31 µM [rising, partial curve]	7.31 µM [rising, partial curve]
O=C(CCc1nc2ccccc2c(=O)[nH]1)Nc1ccccc1N1CCCC1	32.2%	1.16 µM [rising, full curve]	1.3 µM [rising, full curve]
COc1ccc(C(=O)n2nc(-c3ccc(OC)cc3)nc2N)cc1	5.5%	18.4 µM [rising, single point]	–
Cc1c(NC(=O)C(C)OC(=O)Cc2ccc(F)cc2)c(=O)n(-c2ccccc2)n1C (centres undefined)	-27.3%	29.1 µM [falling, single point]	–
N#Cc1ccccc1N1CCN(C(=O)c2ccc(NC(=O)c3ccc(Br)o3)cc2)CC1	-39.8%	4.11 µM [falling, single point]	0.82 µM [falling, partial curve, poor fit]
C#CCOCCOCCOCCNc1nc(N2CCN(C(=O)[C@H](CCCCN)n3cc(C(N)CO)nn3)CC2)nc(N2CCN(C(=O)[C@H](CCC(=O)O)n3cc(C(N)CC(C)C)nn3)CC2)n1 (some centres undefined)	9.98%	1.64 µM [rising, partial curve, poor fit]	–
CCCn1c(C)cc(/C=C(\C#N)C(=O)OCC(=O)Nc2cccc(OC)c2)c1C	–	6.51 µM [rising, partial curve]	6.51 µM [rising, partial curve]
O=C(O)c1ccccc1C(=O)NCCCCCCNC(=O)c1ccccc1C(=O)O	16.7%	–	–
O=C(COc1ccccc1Cl)NCc1ccncc1	-7.91%	–	–
CCOc1ccccc1NC(=S)N1CCC(c2nc3ccccc3o2)CC1	7.85%	18.4 µM [falling, single point]	–
COc1cc(/C=C2/SC(=NCc3ccccc3)N(Cc3ccccc3)C2=O)ccc1O	-53.6%	6.51 µM [falling, single point]	–

SMILES	cell number change	AC50 [1]	AC50 [2]
Cc1ccc(Cl)cc1NC(=O)CN1C(=O)NC2(CCCCCC2)C1=O	3.42%	–	–
O=C(NCCS(=O)(=O)NCC1CCCO1)c1ccccc1 (centres undefined)	-22.9%	0.103 µM [rising, full curve, poor fit]	–
CC(C)CNC1=C(C(=S)Nc2ccccc2)C(=O)CC(C)(C)C1	35.5%	6.51 µM [rising, partial curve]	6.51 µM [rising, partial curve]
CCc1ccccc1NC(=O)NC1CC2CCC(C1)N2Cc1cccs1 (centres undefined)	-14.6%	–	–
O=C(c1cc2cc(Cl)ccc2oc1=O)N1CCOCC1	2.97%	–	–
CCOC(=O)c1ccc(S(=O)(=O)NNS(=O)(=O)c2ccc(C)cc2)cc1	22%	–	–
CC(C)NC(=O)C(c1ccc(F)cc1)N(C(=O)CCC(=O)Nc1ccccn1)C1CCCC1 (centres undefined)	7.98%	0.206 µM [falling, single point]	–
O=C(Nc1ccc(C(=O)O)cc1)/C(=C\c1ccc2c(c1)OCO2)NC(=O)c1ccc(Br)o1	18.9%	0.116 µM [rising, full curve]	–
COc1ccc(OC)c(NC(=O)COC(=O)CN2C(=O)NC3(CCCC3)C2=O)c1	5.1%	3.26 µM [rising, partial curve, poor fit]	–
Fc1ccc(CSc2nnc(CN3CCOCC3)n2-c2ccccc2)c(Cl)c1	-6.41%	6.51 µM [rising, single point]	–
O=C(O)Cn1cc(/C=N/NC(=O)c2cc3cc(Br)ccc3o2)c2ccccc21	14.8%	16.4 µM [rising, partial curve]	–
CCOc1ccccc1NC(=O)CSc1nc2ccccc2c(=O)n1CC1CCCO1 (centres undefined)	-6.25%	1.03 µM [rising, single point]	–
CCS(=O)(=O)c1ccc(-c2cccc(NC(=O)COc3ccc(Cl)cc3)c2)nn1	-2.75%	0.731 µM [rising, partial curve]	–
CC1CCN(C(=O)Cn2c(=O)n(CCc3ccccc3)c(=O)c3ccccc32)CC1	10.4%	0.184 µM [rising, full curve]	–
N#Cc1cc([N+](=O)[O-])ccc1NCC1CCCO1 (centres undefined)	27%	–	–
COc1ccc(C(=O)NCCCN2CCCC2=O)cc1	12.2%	29.1 µM [falling, single point]	–
Cc1cc(C)c(C)c(S(=O)(=O)NCc2ccncc2)c1C	-20%	–	–
CCc1nnc(NC(=O)CSc2sc3c(O)cc(=O)[nH]c3c2C#N)s1	24.3%	29.1 µM [rising, single point]	–
CCOC(=O)N1CCN(C(=O)COC(=O)c2ccc(O)cc2O)CC1	-89.9%	–	3.66 µM [falling, partial curve, poor fit]
Cc1cc(C)n2c(SC(C)C(=O)NC3(C#N)CCCCC3)nnc2n1 (centres undefined)	1.25%	10.3 µM [rising, partial curve]	–

Reprinted from the entries so far (2 entries):
SMILES	cell number change	AC50 [1]	AC50 [2]
CCc1nnc(NC(=O)CSc2sc3c(O)cc(=O)[nH]c3c2C#N)s1	24.3%	29.1 µM [rising, single point]	–
CCOC(=O)N1CCN(C(=O)COC(=O)c2ccc(O)cc2O)CC1	-89.9%	–	3.66 µM [falling, partial curve, poor fit]
